Differences between knockout arms are mostly noise.
Tested on: MDA-MB-231
Assay: relative cell number vs DMSO control (72 h) (% of DMSO); higher = less growth inhibition (more cells)
Procedure: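 QMAP-Seq: a pool of 5 breast cancer cell lines (ZR-75-1, SKBR3, HCC-38, MDA-MB-231, BT-20), each carrying 12 doxycycline-inducible Cas9 sgRNA perturbations (11 knockouts plus non-targeting sgNT), was treated with compounds for 72 h at four 10-fold doses (10 nM-10 uM or 1 nM-1 uM range). Barcodes were amplified and sequenced, and cell number was interpolated from 293T spike-in standard curves. The result is expressed as % of the median of DMSO wells. Two biological replicates.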

Cc1cc2c(F)c(Oc3ncnn4cc(OC[C@@H](C)O)c(C)c34)ccc2[nH]1 [Brivanib]
Settings | relative cell number
sgRNA knockout: sgATF3, 10 nM | 108
sgRNA knockout: sgATF3, 100 nM | 94.7
sgRNA knockout: sgATF3, 1000 nM | 96.5
sgRNA knockout: sgATF3, 10000 nM | 64.1
sgRNA knockout: sgATF4, 10 nM | 107
sgRNA knockout: sgATF4, 100 nM | 63.8
sgRNA knockout: sgATF4, 1000 nM | 103
sgRNA knockout: sgATF4, 10000 nM | 73.4
sgRNA knockout: sgATF6, 10 nM | 100
sgRNA knockout: sgATF6, 100 nM | 99.3
sgRNA knockout: sgATF6, 1000 nM | 96.8
sgRNA knockout: sgATF6, 10000 nM | 64.4
sgRNA knockout: sgATG7, 10 nM | 104
sgRNA knockout: sgATG7, 100 nM | 90.7
sgRNA knockout: sgATG7, 1000 nM | 90.3
sgRNA knockout: sgATG7, 10000 nM | 64.04
sgRNA knockout: sgERN1, 10 nM | 122
sgRNA knockout: sgERN1, 100 nM | 90.2
sgRNA knockout: sgERN1, 1000 nM | 109
sgRNA knockout: sgERN1, 10000 nM | 71.7
sgRNA knockout: sgHSF1, 10 nM | 114
sgRNA knockout: sgHSF1, 100 nM | 67.9
sgRNA knockout: sgHSF1, 1000 nM | 99
sgRNA knockout: sgHSF1, 10000 nM | 62.7
sgRNA knockout: sgHSF2, 10 nM | 85
sgRNA knockout: sgHSF2, 100 nM | 97.8
sgRNA knockout: sgHSF2, 1000 nM | 88.8
sgRNA knockout: sgHSF2, 10000 nM | 57.7
sgRNA knockout: sgKEAP1, 10 nM | 104
sgRNA knockout: sgKEAP1, 100 nM | 90.6
sgRNA knockout: sgKEAP1, 1000 nM | 106
sgRNA knockout: sgKEAP1, 10000 nM | 53.8
sgRNA knockout: sgNFE2L2, 10 nM | 111
sgRNA knockout: sgNFE2L2, 100 nM | 81.6
sgRNA knockout: sgNFE2L2, 1000 nM | 112
sgRNA knockout: sgNFE2L2, 10000 nM | 68.3
sgRNA knockout: sgSLC35F2, 10 nM | 99.3
sgRNA knockout: sgSLC35F2, 100 nM | 92.5
sgRNA knockout: sgSLC35F2, 1000 nM | 97.7
sgRNA knockout: sgSLC35F2, 10000 nM | 46
sgRNA knockout: sgXBP1, 10 nM | 111
sgRNA knockout: sgXBP1, 100 nM | 81.7
sgRNA knockout: sgXBP1, 1000 nM | 114
sgRNA knockout: sgXBP1, 10000 nM | 73.9

O=C(O)CCCc1ccc(N(CCCl)CCCl)cc1 [Chlorambucil]
Settings | relative cell number
sgRNA knockout: sgATF3, 10 nM | 106
sgRNA knockout: sgATF3, 100 nM | 90.5
sgRNA knockout: sgATF3, 1000 nM | 102
sgRNA knockout: sgATF3, 10000 nM | 63.3
sgRNA knockout: sgATF4, 10 nM | 81.6
sgRNA knockout: sgATF4, 100 nM | 89.1
sgRNA knockout: sgATF4, 1000 nM | 58.7
sgRNA knockout: sgATF4, 10000 nM | 63.5
sgRNA knockout: sgATF6, 10 nM | 75.8
sgRNA knockout: sgATF6, 100 nM | 108
sgRNA knockout: sgATF6, 1000 nM | 91.8
sgRNA knockout: sgATF6, 10000 nM | 79.8
sgRNA knockout: sgATG7, 10 nM | 94.5
sgRNA knockout: sgATG7, 100 nM | 94.5
sgRNA knockout: sgATG7, 1000 nM | 93.1
sgRNA knockout: sgATG7, 10000 nM | 46.8
sgRNA knockout: sgERN1, 10 nM | 102
sgRNA knockout: sgERN1, 100 nM | 83.9
sgRNA knockout: sgERN1, 1000 nM | 103
sgRNA knockout: sgERN1, 10000 nM | 53.7
sgRNA knockout: sgHSF1, 10 nM | 90.4
sgRNA knockout: sgHSF1, 100 nM | 95.3
sgRNA knockout: sgHSF1, 1000 nM | 93.6
sgRNA knockout: sgHSF1, 10000 nM | 59.6
sgRNA knockout: sgHSF2, 10 nM | 103
sgRNA knockout: sgHSF2, 100 nM | 83.4
sgRNA knockout: sgHSF2, 1000 nM | 85.1
sgRNA knockout: sgHSF2, 10000 nM | 79.8
sgRNA knockout: sgKEAP1, 10 nM | 97.5
sgRNA knockout: sgKEAP1, 100 nM | 83.6
sgRNA knockout: sgKEAP1, 1000 nM | 117
sgRNA knockout: sgKEAP1, 10000 nM | 73.6
sgRNA knockout: sgNFE2L2, 10 nM | 96.1
sgRNA knockout: sgNFE2L2, 100 nM | 60.7
sgRNA knockout: sgNFE2L2, 1000 nM | 96.1
sgRNA knockout: sgNFE2L2, 10000 nM | 42.7
sgRNA knockout: sgSLC35F2, 10 nM | 118
sgRNA knockout: sgSLC35F2, 100 nM | 90.7
sgRNA knockout: sgSLC35F2, 1000 nM | 85.2
sgRNA knockout: sgSLC35F2, 10000 nM | 68.5
sgRNA knockout: sgXBP1, 10 nM | 109
sgRNA knockout: sgXBP1, 100 nM | 105
sgRNA knockout: sgXBP1, 1000 nM | 84.1
sgRNA knockout: sgXBP1, 10000 nM | 56.6

Nc1nc(Cl)nc2c1ncn2[C@@H]1O[C@H](CO)[C@@H](O)[C@@H]1F [Clofarabine]
Settings | relative cell number
sgRNA knockout: sgATF3, 10 nM | 73.5
sgRNA knockout: sgATF3, 100 nM | 34.9
sgRNA knockout: sgATF3, 1000 nM | 15.8
sgRNA knockout: sgATF3, 10000 nM | 14.2
sgRNA knockout: sgATF4, 10 nM | 72.2
sgRNA knockout: sgATF4, 100 nM | 41.1
sgRNA knockout: sgATF4, 1000 nM | 19.3
sgRNA knockout: sgATF4, 10000 nM | 18.8
sgRNA knockout: sgATF6, 10 nM | 73.3
sgRNA knockout: sgATF6, 100 nM | 38.5
sgRNA knockout: sgATF6, 1000 nM | 14.5
sgRNA knockout: sgATF6, 10000 nM | 12.9
sgRNA knockout: sgATG7, 10 nM | 98.3
sgRNA knockout: sgATG7, 100 nM | 34.6
sgRNA knockout: sgATG7, 1000 nM | 17.7
sgRNA knockout: sgATG7, 10000 nM | 13.5
sgRNA knockout: sgERN1, 10 nM | 86.5
sgRNA knockout: sgERN1, 100 nM | 30.8
sgRNA knockout: sgERN1, 1000 nM | 14.2
sgRNA knockout: sgERN1, 10000 nM | 12.8
sgRNA knockout: sgHSF1, 10 nM | 85.6
sgRNA knockout: sgHSF1, 100 nM | 36
sgRNA knockout: sgHSF1, 1000 nM | 12.2
sgRNA knockout: sgHSF1, 10000 nM | 17.6
sgRNA knockout: sgHSF2, 10 nM | 93
sgRNA knockout: sgHSF2, 100 nM | 29.7
sgRNA knockout: sgHSF2, 1000 nM | 16
sgRNA knockout: sgHSF2, 10000 nM | 17.1
sgRNA knockout: sgKEAP1, 10 nM | 90.3
sgRNA knockout: sgKEAP1, 100 nM | 33
sgRNA knockout: sgKEAP1, 1000 nM | 11.9
sgRNA knockout: sgKEAP1, 10000 nM | 15.1
sgRNA knockout: sgNFE2L2, 10 nM | 93.4
sgRNA knockout: sgNFE2L2, 100 nM | 36
sgRNA knockout: sgNFE2L2, 1000 nM | 14.8
sgRNA knockout: sgNFE2L2, 10000 nM | 20.7
sgRNA knockout: sgSLC35F2, 10 nM | 76.6
sgRNA knockout: sgSLC35F2, 100 nM | 30.5
sgRNA knockout: sgSLC35F2, 1000 nM | 10.6
sgRNA knockout: sgSLC35F2, 10000 nM | 12.2
sgRNA knockout: sgXBP1, 10 nM | 70.2
sgRNA knockout: sgXBP1, 100 nM | 28.2
sgRNA knockout: sgXBP1, 1000 nM | 18.19
sgRNA knockout: sgXBP1, 10000 nM | 15.5

Reference: the supplement of paper PMC7661543
